# Source: the supplement of paper PMC8256030
# Several values for one entry are separate records, joined by “and”; a condition that tells them apart may be missing. Identical values can stand only once. Counter-ions that a name gives are not always drawn. This is one part of the list. Repeats in this data set agree poorly, so a single value says little.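 HEK293T cells were given each compound shortly before transfection with a reporter in which red mCherry is followed by the SARS-CoV-2 frameshift element and then GFP in the −1 frame, so GFP appears only after frameshifting.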
# Tested on: HEK293T
# Assay: percent viability (nuclei count) relative to control; higher = more viable cells
# Conditions: 10 µM; 24 h
row,SMILES,percent viability
1,CCOC(=O)c1cnc2c(cnn2CC)c1NN=C(C)C [etazolate],200%
2,O=C(O)C[C@H](O)C[C@H](O)/C=C/c1c(C2CC2)nc2ccccc2c1-c1ccc(F)cc1 [Pitavastatin],32%
3,NC(C(=O)O)C(O)c1ccc(O)c(O)c1 (stereo not given),47.6%
4,CCC(C(=O)OCCN1CCOC(c2ccccc2)C1C)c1ccccc1 (stereo not given) [fenbutrazate],262%
5,CO[C@@H]1[C@@H](O[C@@H]2O[C@H](C)[C@@H](O[C@H]3C[C@@](C)(O)[C@@H](OC(=O)CC(C)C)[C@H](C)O3)[C@H](N(C)C)[C@H]2O)[C@@H](CC=O)C[C@@H](C)[C@@H](O)/C=C/C=C/C[C@@H](C)OC(=O)C[C@H]1OC(C)=O [Josamycin],85.2%
6,CC1NC(=O)COC1c1ccccc1 (stereo not given) [fenmetramide],285%
7,O=[N+]([O-])c1ccc(/C=C/c2cccc(CO)n2)o1 [nifurpirinol],148%
8,CC[C@H](NC(=O)c1c(O)c(-c2ccccc2)nc2ccccc12)c1ccccc1 [talnetant],121%
9,CNC[C@H](O)[C@@H](O)[C@H](O)[C@H](O)CO [Meglumine],130%
10,CN(C)CCN(Cc1ccc(Cl)cc1)c1ccccn1,325%
11,CNC(=C[N+](=O)[O-])NCCSCc1ccc(CN(C)C)o1,121%
12,O=C(NNCS(=O)(=O)O)c1ccncc1 [methaniazide],236%
13,N[C@@H](CC(=O)N1CCn2c(nnc2C(F)(F)F)C1)Cc1cc(F)c(F)cc1F [sitagliptin],217%
14,CCc1[nH]c(=O)[nH]c1C(=O)c1ccncc1 [piroximone],226%
15,C=Cc1cc(O)cc2nc(-c3ccc(O)c(F)c3)oc12 [prinaberel],47.1%
16,O=C1CN2Cc3c(ccc(Cl)c3Cl)N=C2N1 [Anagrelide],212%
17,OC(CNCC(O)C1CCc2cc(F)ccc2O1)C1CCc2cc(F)ccc2O1 (stereo not given) [nebivolol],292% and 277%
18,C[C@H]1COc2c(N3CCN(C)CC3)c(F)cc3c(=O)c(C(=O)O)cn1c23 [levofloxacin],320% and 189% and 288%
19,CC1CC(OC(=O)c2ccccc2O)CC(C)(C)C1 (stereo not given) [homosalate],344%
20,Cc1cc(-n2nc3ccc(Cl)cc3n2)c(O)c(C(C)(C)C)c1 [bumetrizole],149%

row,SMILES,percent viability
1,CCCN(CCC)C(=O)C(CCC(=O)O)NC(=O)c1ccccc1 (stereo not given) [proglumide],51.6%
2,CCCSc1ccc2[nH]c(NC(=O)OC)nc2c1 [albendazole],44.1% and 20%
3,CNC(=O)[C@@H](NC(=O)[C@H](CC(C)C)[C@H](O)C(=O)NO)C(C)(C)C [marimastat],145%
4,CCCCC(CC)COC(=O)c1ccccc1O (stereo not given) [octisalate],116%
5,CCOc1ccccc1OCCN[C@H](C)Cc1ccc(OC)c(S(N)(=O)=O)c1 [tamsulosin],187% and 165%
6,CN(C)c1ccc2nc3ccc(=[N+](C)C)cc-3sc2c1,236%
7,Fc1ccc(Cn2c(NC3CCNCC3)nc3ccccc32)cc1 [tecastemizole],450%
8,CNC[C@H](O)[C@@H](O)[C@H](O)[C@H](O)CO,38.9%
9,CCN1CCN(C(=O)N[C@@H](C(=O)N[C@@H]2C(=O)N3[C@@H]2SC(C)(C)[C@@H]3C(=O)O)c2ccccc2)C(=O)C1=O,99.5%
10,Oc1ccc(C2CNCCc3c2cc(O)c(O)c3Cl)cc1 (stereo not given) [Fenoldopam·HCl],223%
11,C/C=C/c1ccc(OC)cc1,249%
12,C[C@H](N)C(=O)N[C@@H](C)C(=O)N[C@H]1[C@@H]2CN(c3nc4c(cc3F)c(=O)c(C(=O)O)cn4-c3ccc(F)cc3F)C[C@@H]21 [alatrofloxacin],275%
13,CC(C)[C@H](N)C(=O)OCCOCn1cnc2c(=O)nc(N)[nH]c21 [valaciclovir],227%
14,CN(C)CCCN1c2ccccc2Sc2cccnc21 [prothipendyl],528%
15,CCN(CC)CCOC(=O)N(c1ccccc1)c1ccccc1 [dicarfen],162%
16,CC(C)(C)C(=O)OCOC(=O)[C@@H]1N2C(=O)[C@@H](/N=C/N3CCCCCC3)[C@H]2SC1(C)C [pivmecillinam],129%
17,COc1ccc([C@@H]2Sc3ccccc3N(CCN(C)C)C(=O)[C@@H]2OC(C)=O)cc1 [diltiazem],417% and 154%
18,CCN1CCCC1CNC(=O)c1cc(S(=O)(=O)CC)c(N)cc1OC (stereo not given) [amisulpride],306% and 161%
19,Cc1ncc(CSSCc2cnc(C)c(O)c2CO)c(CO)c1O [pyritinol],157%
20,CCCCOC(=O)c1ccccc1Nc1cccc(C(F)(F)F)c1 [ufenamate],198%
